Measurements reported in PubChem BioAssay AID1224828 (NIAID, 2016)
Purpose: 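Regulators linking TLR4 signalling to p65 nuclear translocation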 (primary screen). Cell system: mouse RAW264.7 G9 macrophage reporter cells (GFP-p65, Tnf promoter-mCherry). Knock-down reagent: siRNA pool against mouse genes, 100 nM. Timing: 2 days siRNA transfection, then 40 min LPS before fixation. Challenge: LPS (Salmonella minnesota R595) at 10 ng/ml. Measured: 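Microscopy ratio of nuclear to perinuclear-ring GFP-p65 signal, scaled to the plate median; gene score is the average of two replicate robust z-scores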. Scale: p65 translocation robust z-score: higher = more nuclear NF-kappaB p65 after LPS than the plate median; nuclear/cytoplasmic p65 ratio: higher = more nuclear NF-kappaB p65. Hit rule: 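Called active when z exceeds 3.3 or falls under -1.56 (median of Tlr4 controls), giving activity score of at least 50; no calls for control wells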. Calls: active = hit (p65 shift raised or lowered); inactive = no clear change.
This is an unselected part of about 17,000 deposited reagents. In the full data, 762 (4.5%) are marked active. 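Active calls include both raised and lowered p65 entry, mostly lowered; wells with fewer than 50 cells lack a z-score.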 Raw values vary from plate to plate and are shown uncorrected. No sequences are given here.

What is on record for Rho (rhodopsin)?
p65 translocation robust z-score: -0.2; nuclear/cytoplasmic p65 ratio, rep 1: 1.52; nuclear/cytoplasmic p65 ratio, rep 2: 1.52; low cell count flag: enough cells to score; Call: inactive

Which result is listed for Eya1 (EYA transcriptional coactivator and phosphatase 1)?
p65 translocation robust z-score: 0.25; nuclear/cytoplasmic p65 ratio, rep 1: 1.57; nuclear/cytoplasmic p65 ratio, rep 2: 1.33; low cell count flag: enough cells to score; Call: inactive

With Plaa (phospholipase A2, activating protein), what does the deposit list?
p65 translocation robust z-score: 0.1; nuclear/cytoplasmic p65 ratio, rep 1: 1.52; nuclear/cytoplasmic p65 ratio, rep 2: 1.41; low cell count flag: enough cells to score; Call: inactive

With Mdfi (MyoD family inhibitor), how do the results read?
nuclear/cytoplasmic p65 ratio, rep 1: 1.44; nuclear/cytoplasmic p65 ratio, rep 2: 1.17; low cell count flag: fewer than 50 cells per well; well left out of scoring; Call: inactive

With Rpl3l (ribosomal protein L3-like), what does the deposit list?
p65 translocation robust z-score: 0.8; nuclear/cytoplasmic p65 ratio, rep 1: 1.53; nuclear/cytoplasmic p65 ratio, rep 2: 1.06; low cell count flag: enough cells to score; Call: inactive

How did the screen score Vmn1r16 (vomeronasal 1 receptor 16)?
p65 translocation robust z-score: -0.48; nuclear/cytoplasmic p65 ratio, rep 1: 1.34; nuclear/cytoplasmic p65 ratio, rep 2: 1.16; low cell count flag: enough cells to score; Call: inactive

For Bard1 (BRCA1 associated RING domain 1), what was measured?
p65 translocation robust z-score: -0.62; nuclear/cytoplasmic p65 ratio, rep 1: 1.54; nuclear/cytoplasmic p65 ratio, rep 2: 1.5; low cell count flag: enough cells to score; Call: inactive

Which result is listed for Elovl3 (ELOVL fatty acid elongase 3)?
nuclear/cytoplasmic p65 ratio, rep 1: 1.47; nuclear/cytoplasmic p65 ratio, rep 2: 1.35; low cell count flag: fewer than 50 cells per well; well left out of scoring; Call: inactive

What is on record for Slc17a8?
nuclear/cytoplasmic p65 ratio, rep 1: 1.67; nuclear/cytoplasmic p65 ratio, rep 2: 0; low cell count flag: fewer than 50 cells per well; well left out of scoring; Call: inactive

For Ebp (EBP cholestenol delta-isomerase), what was measured?
p65 translocation robust z-score: 2.15; nuclear/cytoplasmic p65 ratio, rep 1: 1.83; nuclear/cytoplasmic p65 ratio, rep 2: 1.58; low cell count flag: enough cells to score; Call: inactive

With Foxl2 (forkhead box L2), what was measured?
p65 translocation robust z-score: 0.35; nuclear/cytoplasmic p65 ratio, rep 1: 1.46; nuclear/cytoplasmic p65 ratio, rep 2: 1.43; low cell count flag: enough cells to score; Call: inactive

Which result is listed for Adprh (ADP-ribosylarginine hydrolase)?
p65 translocation robust z-score: 0.21; nuclear/cytoplasmic p65 ratio, rep 1: 1.55; nuclear/cytoplasmic p65 ratio, rep 2: 1.74; low cell count flag: enough cells to score; Call: inactive

With Pln (phospholamban), what was measured?
p65 translocation robust z-score: -0.11; nuclear/cytoplasmic p65 ratio, rep 1: 1.34; nuclear/cytoplasmic p65 ratio, rep 2: 1.23; low cell count flag: enough cells to score; Call: inactive

What is on record for Brca1 (breast cancer 1, early onset)?
p65 translocation robust z-score: -0.73; nuclear/cytoplasmic p65 ratio, rep 1: 1.68; nuclear/cytoplasmic p65 ratio, rep 2: 1.49; low cell count flag: enough cells to score; Call: inactive

What is on record for Cdc7 (cell division cycle 7)?
p65 translocation robust z-score: -0.53; nuclear/cytoplasmic p65 ratio, rep 1: 1.66; nuclear/cytoplasmic p65 ratio, rep 2: 1.28; low cell count flag: enough cells to score; Call: inactive

Which result is listed for Rnaseh1 (ribonuclease H1)?
nuclear/cytoplasmic p65 ratio, rep 1: 1.16; nuclear/cytoplasmic p65 ratio, rep 2: 1.07; low cell count flag: fewer than 50 cells per well; well left out of scoring; Call: inactive

For Vmn1r59 (vomeronasal 1 receptor 59), what does the deposit list?
p65 translocation robust z-score: -0.1; nuclear/cytoplasmic p65 ratio, rep 1: 1.39; nuclear/cytoplasmic p65 ratio, rep 2: 1.2; low cell count flag: enough cells to score; Call: inactive

Which result is listed for Stfa1 (stefin A1)?
p65 translocation robust z-score: -0.9; nuclear/cytoplasmic p65 ratio, rep 1: 1.3; nuclear/cytoplasmic p65 ratio, rep 2: 1.23; low cell count flag: enough cells to score; Call: inactive

For Nkain1 (Na+/K+ transporting ATPase interacting 1), how do the results read?
nuclear/cytoplasmic p65 ratio, rep 1: 1.33; nuclear/cytoplasmic p65 ratio, rep 2: 1.43; low cell count flag: fewer than 50 cells per well; well left out of scoring; Call: inactive

For Or8b3b (olfactory receptor family 8 subfamily B member 3B), what was measured?
p65 translocation robust z-score: 0.23; nuclear/cytoplasmic p65 ratio, rep 1: 1.65; nuclear/cytoplasmic p65 ratio, rep 2: 1.12; low cell count flag: enough cells to score; Call: inactive

With Prkd1 (protein kinase D1), what was measured?
p65 translocation robust z-score: -0.35; nuclear/cytoplasmic p65 ratio, rep 1: 1.65; nuclear/cytoplasmic p65 ratio, rep 2: 1.32; low cell count flag: enough cells to score; Call: inactive

A few values from the list.
Under “nuclear/cytoplasmic p65 ratio, rep 2”, Eya1 (EYA transcriptional coactivator and phosphatase 1) reads 1.33
Under “Call”, Bard1 (BRCA1 associated RING domain 1) is entered as inactive
For “nuclear/cytoplasmic p65 ratio, rep 2”, Slc17a8 reads 0
